# Results: the supplement of paper PMC10032668
# Chains of the proteins cited; added tags and fusions are not shown.
# PDLIM7, Q9NR12, UniProt Q9NR12, whole entry: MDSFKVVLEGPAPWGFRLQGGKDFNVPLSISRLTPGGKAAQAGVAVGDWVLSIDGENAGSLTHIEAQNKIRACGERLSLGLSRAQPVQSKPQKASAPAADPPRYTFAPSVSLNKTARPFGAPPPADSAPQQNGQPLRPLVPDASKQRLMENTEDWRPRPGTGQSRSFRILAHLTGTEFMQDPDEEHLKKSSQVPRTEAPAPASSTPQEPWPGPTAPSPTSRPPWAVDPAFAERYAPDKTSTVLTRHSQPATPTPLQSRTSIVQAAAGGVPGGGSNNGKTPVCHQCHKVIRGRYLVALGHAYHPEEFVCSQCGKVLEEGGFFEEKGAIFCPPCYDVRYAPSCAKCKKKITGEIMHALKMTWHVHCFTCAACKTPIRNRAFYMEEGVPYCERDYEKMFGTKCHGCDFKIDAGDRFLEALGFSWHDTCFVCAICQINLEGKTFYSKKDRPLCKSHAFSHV
# PIN1, Q13526, UniProt Q13526, whole entry: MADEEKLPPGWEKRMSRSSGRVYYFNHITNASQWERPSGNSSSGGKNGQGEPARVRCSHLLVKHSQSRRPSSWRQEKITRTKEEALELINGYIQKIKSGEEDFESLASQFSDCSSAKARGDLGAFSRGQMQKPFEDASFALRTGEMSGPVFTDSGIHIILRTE
# PIN4, Q9Y237, UniProt Q9Y237, whole entry: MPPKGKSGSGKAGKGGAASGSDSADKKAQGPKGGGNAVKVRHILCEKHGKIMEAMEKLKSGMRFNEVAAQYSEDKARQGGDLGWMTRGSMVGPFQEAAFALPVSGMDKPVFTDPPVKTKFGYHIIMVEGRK
# PLK1, P53350, UniProt P53350, whole entry: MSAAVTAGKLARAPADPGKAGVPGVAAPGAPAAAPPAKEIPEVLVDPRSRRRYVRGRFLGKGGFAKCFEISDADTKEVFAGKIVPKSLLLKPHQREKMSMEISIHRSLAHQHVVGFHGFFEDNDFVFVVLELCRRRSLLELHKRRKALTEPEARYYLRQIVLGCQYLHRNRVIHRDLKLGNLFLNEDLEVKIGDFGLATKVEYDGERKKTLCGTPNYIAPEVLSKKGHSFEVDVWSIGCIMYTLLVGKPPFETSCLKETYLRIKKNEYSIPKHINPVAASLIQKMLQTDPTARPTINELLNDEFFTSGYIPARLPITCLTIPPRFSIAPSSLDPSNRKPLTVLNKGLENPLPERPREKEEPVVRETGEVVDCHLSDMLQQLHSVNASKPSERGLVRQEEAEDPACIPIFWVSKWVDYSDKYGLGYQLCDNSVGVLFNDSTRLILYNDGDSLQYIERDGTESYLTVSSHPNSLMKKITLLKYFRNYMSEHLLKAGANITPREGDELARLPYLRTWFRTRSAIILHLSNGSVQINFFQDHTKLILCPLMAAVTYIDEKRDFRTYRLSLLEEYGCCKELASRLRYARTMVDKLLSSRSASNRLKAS
# TPX2, Q9ULW0, UniProt Q9ULW0, whole entry: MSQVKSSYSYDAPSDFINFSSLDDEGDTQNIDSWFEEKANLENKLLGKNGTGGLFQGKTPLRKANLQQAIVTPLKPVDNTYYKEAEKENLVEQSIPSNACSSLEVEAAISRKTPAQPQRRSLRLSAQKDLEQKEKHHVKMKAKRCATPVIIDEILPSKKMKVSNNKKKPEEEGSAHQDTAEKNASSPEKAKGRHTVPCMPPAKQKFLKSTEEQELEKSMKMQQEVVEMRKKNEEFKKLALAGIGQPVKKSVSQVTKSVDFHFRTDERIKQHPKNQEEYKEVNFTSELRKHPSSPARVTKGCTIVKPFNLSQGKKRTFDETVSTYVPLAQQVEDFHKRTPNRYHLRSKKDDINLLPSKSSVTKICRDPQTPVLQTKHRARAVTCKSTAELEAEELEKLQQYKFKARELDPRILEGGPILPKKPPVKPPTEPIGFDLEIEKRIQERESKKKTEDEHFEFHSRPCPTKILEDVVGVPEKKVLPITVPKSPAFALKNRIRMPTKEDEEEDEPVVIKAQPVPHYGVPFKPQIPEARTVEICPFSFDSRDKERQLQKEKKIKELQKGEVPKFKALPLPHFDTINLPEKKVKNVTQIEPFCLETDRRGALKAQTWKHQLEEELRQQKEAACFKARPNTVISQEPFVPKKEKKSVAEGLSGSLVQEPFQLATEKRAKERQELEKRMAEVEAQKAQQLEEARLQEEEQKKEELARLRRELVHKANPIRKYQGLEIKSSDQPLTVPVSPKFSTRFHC
# UFM1, P61960, UniProt P61960, whole entry: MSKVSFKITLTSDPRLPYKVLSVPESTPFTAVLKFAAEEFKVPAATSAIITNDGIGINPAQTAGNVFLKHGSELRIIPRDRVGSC
# The list shows a part of the results. Only hits are listed; about a third recur on repeated control peptides.
# How the values were obtained:
# Assay in all cases: PRISMA enrichment of interactor (LFQ) in peptide spot vs all other peptide spots (log2 fold change); higher = stronger / more specific binding of the interactor to the peptide
# [1] = substrate: PCNP, Q8WW12
# Description: (§1)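 PRISMA: 221 full-length sORF-encoded peptides (3-15 aa), plus SOS1/GLUT1 control peptides, were spot-synthesized on cellulose membranes in triplicate. Membranes were incubated with HEK293T lysate, and bound proteins were identified by LC-MS/MS with LFQ. Enrichment is the log2 fold change versus all other peptide spots; only significant interactors are listed (cutoff c=6, x0=2.8).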
# PDCD6, O75340 = biological target: PDCD6, O75340
# Description: as §1
# PDLIM7, Q9NR12 = biological target: PDLIM7, Q9NR12
# Description: as §1
# PICALM, Q13492 = biological target: PICALM, Q13492
# Description: as §1
# PIN1, Q13526 = biological target: PIN1, Q13526
# Description: as §1
# PIN4, Q9Y237 = biological target: PIN4, Q9Y237
# Description: as §1
# PINX1, Q96BK5 = biological target: PINX1, Q96BK5
# Description: as §1
# PLK1, P53350 = biological target: PLK1, P53350
# Description: as §1
# POLDIP3, Q9BY77 = biological target: POLDIP3, Q9BY77
# Description: as §1
# POLRMT, O00411 = biological target: POLRMT, O00411
# Description: as §1
# [2] = substrate: PPIF, P30405
# Description: as §1
# PPIL2, Q13356 = biological target: PPIL2, Q13356
# Description: as §1
# PPP1R10, Q96QC0 = biological target: PPP1R10, Q96QC0
# Description: as §1
# PRRC2A, P48634 = biological target: PRRC2A, P48634
# Description: as §1
# PSPC1, Q8WXF1 = biological target: PSPC1, Q8WXF1
# Description: as §1
# PSRC1, Q6PGN9 = biological target: PSRC1, Q6PGN9
# Description: as §1
# PTBP1, P26599 = biological target: PTBP1, P26599
# Description: as §1
# RAE1, P78406 = biological target: RAE1, P78406
# Description: as §1
# RBM14, Q96PK6 = biological target: RBM14, Q96PK6
# Description: as §1
# RBM27, Q9P2N5 = biological target: RBM27, Q9P2N5
# Description: as §1
# RBM33, Q96EV2 = biological target: RBM33, Q96EV2
# Description: as §1
# RPUSD3, Q6P087 = biological target: RPUSD3, Q6P087
# Description: as §1
# RRP36, Q96EU6 = biological target: RRP36, Q96EU6
# Description: as §1
# RTRAF, Q9Y224 = biological target: RTRAF, Q9Y224
# Description: as §1
# SAFB, Q15424 = biological target: SAFB, Q15424
# Description: as §1
# SBDS, Q9Y3A5 = biological target: SBDS, Q9Y3A5
# Description: as §1
# SEH1L, Q96EE3 = biological target: SEH1L, Q96EE3
# Description: as §1
# SERF2, P84101 = biological target: SERF2, P84101
# Description: as §1
# SF1, Q15637 = biological target: SF1, Q15637
# Description: as §1
# SFPQ, P23246 = biological target: SFPQ, P23246
# Description: as §1
# SLC9A3R2, Q15599 = biological target: SLC9A3R2, Q15599
# Description: as §1
# SMNDC1, O75940 = biological target: SMNDC1, O75940
# Description: as §1
# SNW1, Q13573 = biological target: SNW1, Q13573
# Description: as §1
# SRI, P30626 = biological target: SRI, P30626
# Description: as §1
# SSBP1, Q04837 = biological target: SSBP1, Q04837
# Description: as §1
# STRBP, Q96SI9 = biological target: STRBP, Q96SI9
# Description: as §1
# TACO1, Q9BSH4 = biological target: TACO1, Q9BSH4
# Description: as §1
# TAOK2, Q9UL54 = biological target: TAOK2, Q9UL54
# Description: as §1
# TIA1, P31483 = biological target: TIA1, P31483
# Description: as §1
# TIAL1, Q01085 = biological target: TIAL1, Q01085
# Description: as §1
# TIPRL, O75663 = biological target: TIPRL, O75663
# Description: as §1
# TOMM34, Q15785 = biological target: TOMM34, Q15785
# Description: as §1
# TPX2, Q9ULW0 = biological target: TPX2, Q9ULW0
# Description: as §1
# TRPT1, Q86TN4 = biological target: TRPT1, Q86TN4
# Description: as §1
# TSFM, P43897 = biological target: TSFM, P43897
# Description: as §1
# UFM1, P61960 = biological target: UFM1, P61960
# Description: as §1
# VRK1, Q99986 = biological target: VRK1, Q99986
# Description: as §1
# WDR11, Q9BZH6 = biological target: WDR11, Q9BZH6
# Description: as §1
# YRDC, Q86U90 = biological target: YRDC, Q86U90
# Description: as §1
# YTHDF3, Q7Z739 = biological target: YTHDF3, Q7Z739
# Description: as §1
# ZNF512, Q96ME7 = biological target: ZNF512, Q96ME7
# Description: as §1
# ZNF638, Q14966 = biological target: ZNF638, Q14966
# Description: as §1
# ZNF768, Q9H5H4 = biological target: ZNF768, Q9H5H4
# Description: as §1
binder,measurement,setting,value
MMFWTEF [SH3D19],PRISMA enrichment of interactor (log2),[1],5.89
same,PRISMA enrichment of interactor (log2),"PDCD6, O75340",5.38
same,PRISMA enrichment of interactor (log2),"PDLIM7, Q9NR12",5.23
same,PRISMA enrichment of interactor (log2),"PICALM, Q13492",6.07
same,PRISMA enrichment of interactor (log2),"PIN1, Q13526",5.25
same,PRISMA enrichment of interactor (log2),"PIN4, Q9Y237",5.41
same,PRISMA enrichment of interactor (log2),"PINX1, Q96BK5",6.32
same,PRISMA enrichment of interactor (log2),"PLK1, P53350",7.12
same,PRISMA enrichment of interactor (log2),"POLDIP3, Q9BY77",6.11
same,PRISMA enrichment of interactor (log2),"POLRMT, O00411",5.67
same,PRISMA enrichment of interactor (log2),[2],6.21
same,PRISMA enrichment of interactor (log2),"PPIL2, Q13356",7.04
same,PRISMA enrichment of interactor (log2),"PPP1R10, Q96QC0",5.71
same,PRISMA enrichment of interactor (log2),"PRRC2A, P48634",4.12
same,PRISMA enrichment of interactor (log2),"PSPC1, Q8WXF1",7.36
same,PRISMA enrichment of interactor (log2),"PSRC1, Q6PGN9",4.67
same,PRISMA enrichment of interactor (log2),"PTBP1, P26599",4.33
same,PRISMA enrichment of interactor (log2),"RAE1, P78406",5.67
same,PRISMA enrichment of interactor (log2),"RBM14, Q96PK6",6.01
same,PRISMA enrichment of interactor (log2),"RBM27, Q9P2N5",5.12
same,PRISMA enrichment of interactor (log2),"RBM33, Q96EV2",6.16
same,PRISMA enrichment of interactor (log2),"RPUSD3, Q6P087",4.94
same,PRISMA enrichment of interactor (log2),"RRP36, Q96EU6",4.52
same,PRISMA enrichment of interactor (log2),"RTRAF, Q9Y224",5.04
same,PRISMA enrichment of interactor (log2),"SAFB, Q15424",5.95
same,PRISMA enrichment of interactor (log2),"SBDS, Q9Y3A5",5.17
same,PRISMA enrichment of interactor (log2),"SEH1L, Q96EE3",5.42
same,PRISMA enrichment of interactor (log2),"SERF2, P84101",5.02
same,PRISMA enrichment of interactor (log2),"SF1, Q15637",6.02
same,PRISMA enrichment of interactor (log2),"SFPQ, P23246",5.24
same,PRISMA enrichment of interactor (log2),"SLC9A3R2, Q15599",6.49
same,PRISMA enrichment of interactor (log2),"SMNDC1, O75940",6.22
same,PRISMA enrichment of interactor (log2),"SNW1, Q13573",5.16
same,PRISMA enrichment of interactor (log2),"SRI, P30626",4.69
same,PRISMA enrichment of interactor (log2),"SSBP1, Q04837",5.07
same,PRISMA enrichment of interactor (log2),"STRBP, Q96SI9",6.11
same,PRISMA enrichment of interactor (log2),"TACO1, Q9BSH4",5.26
same,PRISMA enrichment of interactor (log2),"TAOK2, Q9UL54",4.15
same,PRISMA enrichment of interactor (log2),"TIA1, P31483",6.22
same,PRISMA enrichment of interactor (log2),"TIAL1, Q01085",5.33
same,PRISMA enrichment of interactor (log2),"TIPRL, O75663",5.08
same,PRISMA enrichment of interactor (log2),"TOMM34, Q15785",6.77
same,PRISMA enrichment of interactor (log2),"TPX2, Q9ULW0",6.17
same,PRISMA enrichment of interactor (log2),"TRPT1, Q86TN4",3.89
same,PRISMA enrichment of interactor (log2),"TSFM, P43897",4.95
same,PRISMA enrichment of interactor (log2),"UFM1, P61960",4.69
same,PRISMA enrichment of interactor (log2),"VRK1, Q99986",5.12
same,PRISMA enrichment of interactor (log2),"WDR11, Q9BZH6",6.29
same,PRISMA enrichment of interactor (log2),"YRDC, Q86U90",5.03
same,PRISMA enrichment of interactor (log2),"YTHDF3, Q7Z739",4.75
same,PRISMA enrichment of interactor (log2),"ZNF512, Q96ME7",4.65
same,PRISMA enrichment of interactor (log2),"ZNF638, Q14966",7.11
same,PRISMA enrichment of interactor (log2),"ZNF768, Q9H5H4",6.27

# Another view of some results above:
binder	measurement	setting	value
MMFWTEF [SH3D19]	PRISMA enrichment of interactor (log2)	SBDS, Q9Y3A5	5.17
same	PRISMA enrichment of interactor (log2)	SNW1, Q13573	5.16
